# In paper PMC9289542:
# The chains behind the UniProt entries cited, without tags or fusion partners. Residues count along the entry.
# UniProt Q8NBS9, residues 33-432: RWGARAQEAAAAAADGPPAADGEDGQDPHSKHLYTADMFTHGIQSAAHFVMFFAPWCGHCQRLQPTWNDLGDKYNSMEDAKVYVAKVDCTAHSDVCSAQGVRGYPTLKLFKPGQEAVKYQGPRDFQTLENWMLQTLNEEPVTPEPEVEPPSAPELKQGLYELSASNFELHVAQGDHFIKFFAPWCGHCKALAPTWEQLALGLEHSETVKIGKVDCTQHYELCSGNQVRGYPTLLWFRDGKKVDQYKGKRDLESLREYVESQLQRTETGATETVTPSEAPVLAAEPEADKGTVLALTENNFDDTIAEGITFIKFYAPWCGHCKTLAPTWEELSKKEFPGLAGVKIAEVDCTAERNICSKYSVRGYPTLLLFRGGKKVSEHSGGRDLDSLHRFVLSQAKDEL
# UniProt O60884: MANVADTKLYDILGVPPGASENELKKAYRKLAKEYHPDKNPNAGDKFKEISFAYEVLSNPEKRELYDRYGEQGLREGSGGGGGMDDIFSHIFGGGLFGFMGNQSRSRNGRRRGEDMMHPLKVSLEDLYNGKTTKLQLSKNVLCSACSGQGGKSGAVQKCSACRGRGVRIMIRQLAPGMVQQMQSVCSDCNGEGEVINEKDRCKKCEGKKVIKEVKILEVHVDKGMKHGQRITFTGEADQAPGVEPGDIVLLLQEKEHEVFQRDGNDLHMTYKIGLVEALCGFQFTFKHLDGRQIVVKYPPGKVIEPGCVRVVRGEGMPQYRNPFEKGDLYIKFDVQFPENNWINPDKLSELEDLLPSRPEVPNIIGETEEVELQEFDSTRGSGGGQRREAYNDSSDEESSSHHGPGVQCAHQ
# UniProt P36543: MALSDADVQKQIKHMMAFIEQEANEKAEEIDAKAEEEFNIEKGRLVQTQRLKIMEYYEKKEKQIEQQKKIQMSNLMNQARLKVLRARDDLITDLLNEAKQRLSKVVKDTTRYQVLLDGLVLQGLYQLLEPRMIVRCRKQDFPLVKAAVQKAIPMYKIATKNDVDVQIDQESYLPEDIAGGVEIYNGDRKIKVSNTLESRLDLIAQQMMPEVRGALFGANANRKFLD
# UniProt P07237, residues 18-508: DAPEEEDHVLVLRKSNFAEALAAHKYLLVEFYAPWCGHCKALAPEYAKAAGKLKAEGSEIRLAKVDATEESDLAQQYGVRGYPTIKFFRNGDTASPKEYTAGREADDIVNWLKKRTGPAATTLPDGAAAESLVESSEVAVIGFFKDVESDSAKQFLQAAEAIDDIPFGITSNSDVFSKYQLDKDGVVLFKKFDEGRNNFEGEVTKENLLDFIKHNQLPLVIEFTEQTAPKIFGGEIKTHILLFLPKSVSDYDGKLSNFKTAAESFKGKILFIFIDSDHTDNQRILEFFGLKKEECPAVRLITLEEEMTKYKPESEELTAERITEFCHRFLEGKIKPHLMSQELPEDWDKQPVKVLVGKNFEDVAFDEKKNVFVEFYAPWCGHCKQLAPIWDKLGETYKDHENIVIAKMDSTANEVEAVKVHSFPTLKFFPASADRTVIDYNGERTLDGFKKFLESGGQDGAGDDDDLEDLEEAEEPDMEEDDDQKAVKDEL
# UniProt P27824, residues 21-592: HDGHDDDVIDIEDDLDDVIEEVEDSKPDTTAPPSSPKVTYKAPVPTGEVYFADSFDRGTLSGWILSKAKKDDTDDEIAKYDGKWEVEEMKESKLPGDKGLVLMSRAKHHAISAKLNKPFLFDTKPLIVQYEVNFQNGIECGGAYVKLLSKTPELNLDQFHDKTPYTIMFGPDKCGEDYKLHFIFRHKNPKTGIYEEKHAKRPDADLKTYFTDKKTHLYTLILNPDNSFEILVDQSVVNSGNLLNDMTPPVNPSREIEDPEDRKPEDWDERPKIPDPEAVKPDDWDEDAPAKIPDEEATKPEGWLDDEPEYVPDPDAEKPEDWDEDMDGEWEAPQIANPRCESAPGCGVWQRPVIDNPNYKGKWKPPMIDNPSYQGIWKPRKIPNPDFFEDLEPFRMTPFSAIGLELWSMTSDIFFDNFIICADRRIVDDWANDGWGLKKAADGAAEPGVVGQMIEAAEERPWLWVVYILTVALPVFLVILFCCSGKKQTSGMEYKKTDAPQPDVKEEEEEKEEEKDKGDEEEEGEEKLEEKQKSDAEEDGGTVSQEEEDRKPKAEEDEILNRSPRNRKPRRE
# UniProt P28331, residues 24-727: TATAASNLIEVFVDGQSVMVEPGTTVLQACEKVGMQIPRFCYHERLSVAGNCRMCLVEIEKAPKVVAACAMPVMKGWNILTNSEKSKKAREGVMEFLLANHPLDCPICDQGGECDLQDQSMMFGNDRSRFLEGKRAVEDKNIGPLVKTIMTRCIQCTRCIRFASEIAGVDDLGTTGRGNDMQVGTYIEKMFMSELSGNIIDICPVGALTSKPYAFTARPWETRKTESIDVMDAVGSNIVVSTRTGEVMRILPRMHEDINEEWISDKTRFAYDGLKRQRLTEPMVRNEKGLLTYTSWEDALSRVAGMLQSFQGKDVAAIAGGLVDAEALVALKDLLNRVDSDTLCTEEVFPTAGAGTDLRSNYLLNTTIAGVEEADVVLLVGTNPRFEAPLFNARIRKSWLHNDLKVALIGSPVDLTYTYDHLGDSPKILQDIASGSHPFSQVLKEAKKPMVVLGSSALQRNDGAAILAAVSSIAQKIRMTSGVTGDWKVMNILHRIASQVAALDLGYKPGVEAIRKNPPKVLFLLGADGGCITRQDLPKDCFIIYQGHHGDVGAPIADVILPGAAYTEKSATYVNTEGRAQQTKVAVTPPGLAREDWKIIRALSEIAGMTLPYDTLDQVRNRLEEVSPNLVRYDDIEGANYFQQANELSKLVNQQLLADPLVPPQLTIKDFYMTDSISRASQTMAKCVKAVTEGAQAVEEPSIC
# UniProt P15313: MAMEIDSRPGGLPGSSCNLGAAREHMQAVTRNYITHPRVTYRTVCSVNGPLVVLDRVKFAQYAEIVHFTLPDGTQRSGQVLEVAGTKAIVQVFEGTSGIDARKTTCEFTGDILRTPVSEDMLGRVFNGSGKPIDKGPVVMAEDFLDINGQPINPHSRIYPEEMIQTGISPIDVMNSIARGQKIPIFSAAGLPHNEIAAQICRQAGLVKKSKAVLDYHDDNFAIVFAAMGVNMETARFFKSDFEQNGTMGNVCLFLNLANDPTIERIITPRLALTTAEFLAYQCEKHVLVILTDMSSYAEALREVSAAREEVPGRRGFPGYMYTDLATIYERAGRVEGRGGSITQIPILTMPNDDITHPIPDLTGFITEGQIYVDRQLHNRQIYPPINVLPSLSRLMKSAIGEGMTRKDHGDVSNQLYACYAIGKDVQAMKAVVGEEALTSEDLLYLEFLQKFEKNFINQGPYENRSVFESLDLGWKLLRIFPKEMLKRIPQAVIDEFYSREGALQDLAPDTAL
# UniProt P25685: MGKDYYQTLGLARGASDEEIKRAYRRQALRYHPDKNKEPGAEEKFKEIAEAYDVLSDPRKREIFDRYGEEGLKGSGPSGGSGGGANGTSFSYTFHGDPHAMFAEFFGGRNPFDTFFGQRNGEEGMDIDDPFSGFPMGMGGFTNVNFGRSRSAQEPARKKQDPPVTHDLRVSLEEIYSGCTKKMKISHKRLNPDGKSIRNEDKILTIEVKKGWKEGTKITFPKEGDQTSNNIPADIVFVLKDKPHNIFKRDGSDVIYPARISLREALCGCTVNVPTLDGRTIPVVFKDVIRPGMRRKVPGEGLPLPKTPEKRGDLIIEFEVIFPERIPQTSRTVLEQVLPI
# UniProt O95757: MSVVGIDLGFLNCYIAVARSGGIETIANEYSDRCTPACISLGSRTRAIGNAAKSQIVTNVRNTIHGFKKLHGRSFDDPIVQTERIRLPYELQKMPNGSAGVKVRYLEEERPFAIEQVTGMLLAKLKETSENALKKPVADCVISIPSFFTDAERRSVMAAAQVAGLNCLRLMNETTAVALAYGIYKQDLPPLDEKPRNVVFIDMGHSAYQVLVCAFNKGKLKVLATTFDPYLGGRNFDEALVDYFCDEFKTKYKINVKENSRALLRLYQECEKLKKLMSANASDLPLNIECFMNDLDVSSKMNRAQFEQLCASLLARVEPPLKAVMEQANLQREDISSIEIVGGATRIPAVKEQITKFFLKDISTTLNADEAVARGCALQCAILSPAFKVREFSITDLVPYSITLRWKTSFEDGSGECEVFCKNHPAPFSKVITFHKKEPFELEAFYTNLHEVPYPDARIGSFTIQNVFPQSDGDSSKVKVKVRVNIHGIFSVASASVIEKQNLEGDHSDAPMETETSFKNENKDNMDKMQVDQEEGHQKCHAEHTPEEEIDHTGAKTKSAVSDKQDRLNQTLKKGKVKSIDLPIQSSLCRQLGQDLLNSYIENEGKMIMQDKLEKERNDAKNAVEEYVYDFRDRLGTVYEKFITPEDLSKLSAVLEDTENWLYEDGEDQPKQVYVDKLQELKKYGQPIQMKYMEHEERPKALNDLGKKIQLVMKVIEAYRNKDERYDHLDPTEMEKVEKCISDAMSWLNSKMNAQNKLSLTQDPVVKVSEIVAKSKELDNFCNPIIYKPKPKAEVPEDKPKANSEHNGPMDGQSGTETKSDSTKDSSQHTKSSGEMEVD
# UniProt O14556: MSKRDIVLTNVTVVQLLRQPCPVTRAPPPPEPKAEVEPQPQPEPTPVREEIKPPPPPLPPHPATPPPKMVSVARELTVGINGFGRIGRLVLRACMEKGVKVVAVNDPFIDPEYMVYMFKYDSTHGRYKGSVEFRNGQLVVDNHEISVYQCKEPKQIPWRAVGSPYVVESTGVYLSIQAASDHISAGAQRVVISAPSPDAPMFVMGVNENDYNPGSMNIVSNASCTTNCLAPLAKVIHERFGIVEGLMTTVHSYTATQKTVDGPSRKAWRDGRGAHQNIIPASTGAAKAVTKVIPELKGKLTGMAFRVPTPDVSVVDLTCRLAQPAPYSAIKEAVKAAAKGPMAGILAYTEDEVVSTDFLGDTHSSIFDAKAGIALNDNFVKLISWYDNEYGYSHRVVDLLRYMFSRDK
# UniProt P03891: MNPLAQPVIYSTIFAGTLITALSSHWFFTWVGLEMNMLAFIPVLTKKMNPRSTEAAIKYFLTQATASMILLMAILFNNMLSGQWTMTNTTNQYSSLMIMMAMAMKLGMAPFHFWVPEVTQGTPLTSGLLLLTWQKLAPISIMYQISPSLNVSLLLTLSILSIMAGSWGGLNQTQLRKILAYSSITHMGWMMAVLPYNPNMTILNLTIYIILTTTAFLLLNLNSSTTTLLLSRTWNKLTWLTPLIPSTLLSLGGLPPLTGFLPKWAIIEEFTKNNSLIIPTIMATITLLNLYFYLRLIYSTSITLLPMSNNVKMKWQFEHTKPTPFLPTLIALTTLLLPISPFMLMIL
# UniProt P49821, residues 21-464: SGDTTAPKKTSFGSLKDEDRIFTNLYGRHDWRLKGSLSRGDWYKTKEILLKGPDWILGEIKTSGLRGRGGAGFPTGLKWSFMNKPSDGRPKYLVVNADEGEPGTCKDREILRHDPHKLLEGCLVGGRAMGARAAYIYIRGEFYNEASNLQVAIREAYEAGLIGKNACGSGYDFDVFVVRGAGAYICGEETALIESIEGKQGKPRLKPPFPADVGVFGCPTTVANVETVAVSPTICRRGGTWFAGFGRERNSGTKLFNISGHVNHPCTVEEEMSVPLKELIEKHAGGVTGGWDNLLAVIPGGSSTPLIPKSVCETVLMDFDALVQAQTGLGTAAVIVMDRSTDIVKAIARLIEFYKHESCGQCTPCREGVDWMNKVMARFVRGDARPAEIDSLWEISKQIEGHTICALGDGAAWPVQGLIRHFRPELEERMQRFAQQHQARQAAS
# T1: protein disulfide isomerase-associated 2 (human (endogenous in HT-29)) (UniProt Q13087)
# T1 sequence: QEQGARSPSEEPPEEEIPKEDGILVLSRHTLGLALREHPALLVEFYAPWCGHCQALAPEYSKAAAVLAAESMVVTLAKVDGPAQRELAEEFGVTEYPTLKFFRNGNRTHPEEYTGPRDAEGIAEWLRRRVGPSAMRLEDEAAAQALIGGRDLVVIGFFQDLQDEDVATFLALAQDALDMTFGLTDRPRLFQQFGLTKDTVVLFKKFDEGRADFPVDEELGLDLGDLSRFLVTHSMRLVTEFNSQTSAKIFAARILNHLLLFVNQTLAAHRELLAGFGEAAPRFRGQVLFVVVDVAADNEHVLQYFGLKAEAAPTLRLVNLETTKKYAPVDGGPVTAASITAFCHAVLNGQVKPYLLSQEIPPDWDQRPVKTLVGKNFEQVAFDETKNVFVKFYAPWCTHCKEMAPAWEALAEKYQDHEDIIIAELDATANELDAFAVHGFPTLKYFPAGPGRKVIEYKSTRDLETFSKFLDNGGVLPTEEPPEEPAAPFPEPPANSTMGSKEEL
# Biological target: T1, protein disulfide isomerase-associated 2 (human (endogenous in HT-29))
# Experiment: affinity purification with mass spectrometry; HT-29 total cell lysate (600 ug protein) precleared with protein A/G PLUS-agarose, incubated with 4 ug rabbit polyclonal anti-human PDIA2 antibody or rabbit IgG at 4 C overnight; 3 washes with lysis buffer; immune complexes used for proteomic profiling
row,Molecule,binding
1,TXNDC5 (from UniProt Q8NBS9 33-432),binds
2,DNAJA2 (from UniProt O60884 1-412),binds
3,ATP6V1E1 (from UniProt P36543 1-226),binds
4,P4HB (from UniProt P07237 18-508),binds
5,CANX (from UniProt P27824 21-592),binds
6,NDUFS1 (from UniProt P28331 24-727),binds
7,ATP6V1B1 (from UniProt P15313 1-513),binds
8,DNAJB1 (from UniProt P25685 1-340),binds
9,HSPA4L (from UniProt O95757 1-839),binds
10,"DERL1 (protein, UniProt Q9BUN8 1-251) MSDIGDWFRSIPAITRYWFAATVAVPLVGKLGLISPAYLFLWPEAFLYRFQIWRPITATFYFPVGPGTGFLYLVNLYFLYQYSTRLETGAFDGRPADYLFMLLFNWICIVITGLAMDMQLLMIPLIMSVLYVWAQLNRDMIVSFWFGTRFKACYLPWVILGFNYIIGGSVINELIGNLVGHLYFFLMFRYPMDLGGRNFLSTPQFLYRWLPSRRGGVSGFGVPPASMRRAADQNGGGGRHNWGQGFRLGDQ",binds
11,"CII-30kDa SDHB (protein, UniProt P21912 29-280) AQTAAATAPRIKKFAIYRWDPDKAGDKPHMQTYEVDLNKCGPMVLDALIKIKNEVDSTLTFRRSCREGICGSCAMNINGGNTLACTRRIDTNLNKVSKIYPLPHMYVIKDLVPDLSNFYAQYKSIEPYLKKKDESQEGKQQYLQSIEEREKLDGLYECILCACCSTSCPSYWWNGDKYLGPAVLMQAYRWMIDSRDDFTEERLAKLQDPFSLYRCHTIMNCTRTCPKGLNPGKAIAEIKKMMATYKEKKASV",binds
12,"PGLS (protein, UniProt O95336 1-258) MAAPAPGLISVFSSSQELGAALAQLVAQRAACCLAGARARFALGLSGGSLVSMLARELPAAVAPAGPASLARWTLGFCDERLVPFDHAESTYGLYRTHLLSRLPIPESQVITINPELPVEEAAEDYAKKLRQAFQGDSIPVFDLLILGVGPDGHTCSLFPDHPLLQEREKIVAPISDSPKPPPQRVTLTLPVLNAARTVIFVATGEGKAAVLKRILEDQEENPLPAALVQPHTGKLCWFLDEAAARLLTVPFEKHSTL",binds
13,"HSPBP1 (protein, UniProt Q9NZL4 1-359) MSDEGSRGSRLPLALPPASQGCSSGGGGGGSSAGGSGNSRPPRNLQGLLQMAITAGSEEPDPPPEPMSEERRQWLQEAMSAAFRGQREEVEQMKSCLRVLSQPMPPTAGEAEQAADQQEREGALELLADLCENMDNAADFCQLSGMHLLVGRYLEAGAAGLRWRAAQLIGTCSQNVAAIQEQVLGLGALRKLLRLLDRDACDTVRVKALFAISCLVREQEAGLLQFLRLDGFSVLMRAMQQQVQKLKVKSAFLLQNLLVGHPEHKGTLCSMGMVQQLVALVRTEHSPFHEHVLGALCSLVTDFPQGVRECREPELGLEELLRHRCQLLQQHEEYQEELEFCEKLLQTCFSSPADDSMDR",binds
14,"DNAJC3 (protein, UniProt Q13217 32-504) GVNADVEKHLELGKKLLAAGQLADALSQFHAAVDGDPDNYIAYYRRATVFLAMGKSKAALPDLTKVIQLKMDFTAARLQRGHLLLKQGKLDEAEDDFKKVLKSNPSENEEKEAQSQLIKSDEMQRLRSQALNAFGSGDYTAAIAFLDKILEVCVWDAELRELRAECFIKEGEPRKAISDLKAASKLKNDNTEAFYKISTLYYQLGDHELSLSEVRECLKLDQDHKRCFAHYKQVKKLNKLIESAEELIRDGRYTDATSKYESVMKTEPSIAEYTVRSKERICHCFSKDEKPVEAIRVCSEVLQMEPDNVNALKDRAEAYLIEEMYDEAIQDYETAQEHNENDQQIREGLEKAQRLLKQSQKRDYYKILGVKRNAKKQEIIKAYRKLALQWHPDNFQNEEEKKKAEKKFIDIAAAKEVLSDPEMRKKFDDGEDPLDAESQQGGGGNPFHRSWNSWQGFNPFSSGGPFRFKFHFN",binds

# Second part, the molecule after the results:
row,binding,Molecule
1,binds,GAPDHS (from UniProt O14556 1-408)
2,binds,MT-ND2 (from UniProt P03891 1-347)
3,binds,NDUFV1 (from UniProt P49821 21-464)
4,binds,"HK2 (protein, UniProt P52789 1-917) MIASHLLAYFFTELNHDQVQKVDQYLYHMRLSDETLLEISKRFRKEMEKGLGATTHPTAAVKMLPTFVRSTPDGTEHGEFLALDLGGTNFRVLWVKVTDNGLQKVEMENQIYAIPEDIMRGSGTQLFDHIAECLANFMDKLQIKDKKLPLGFTFSFPCHQTKLDESFLVSWTKGFKSSGVEGRDVVALIRKAIQRRGDFDIDIVAVVNDTVGTMMTCGYDDHNCEIGLIVGTGSNACYMEEMRHIDMVEGDEGRMCINMEWGAFGDDGSLNDIRTEFDQEIDMGSLNPGKQLFEKMISGMYMGELVRLILVKMAKEELLFGGKLSPELLNTGRFETKDISDIEGEKDGIRKAREVLMRLGLDPTQEDCVATHRICQIVSTRSASLCAATLAAVLQRIKENKGEERLRSTIGVDGSVYKKHPHFAKRLHKTVRRLVPGCDVRFLRSEDGSGKGAAMVTAVAYRLADQHRARQKTLEHLQLSHDQLLEVKRRMKVEMERGLSKETHASAPVKMLPTYVCATPDGTEKGDFLALDLGGTNFRVLLVRVRNGKWGGVEMHNKIYAIPQEVMHGTGDELFDHIVQCIADFLEYMGMKGVSLPLGFTFSFPCQQNSLDESILLKWTKGFKASGCEGEDVVTLLKEAIHRREEFDLDVVAVVNDTVGTMMTCGFEDPHCEVGLIVGTGSNACYMEEMRNVELVEGEEGRMCVNMEWGAFGDNGCLDDFRTEFDVAVDELSLNPGKQRFEKMISGMYLGEIVRNILIDFTKRGLLFRGRISERLKTRGIFETKFLSQIESDCLALLQVRAILQHLGLESTCDDSIIVKEVCTVVARRAAQLCGAGMAAVVDRIRENRGLDALKVTVGVDGTLYKLHPHFAKVMHETVKDLAPKCDVSFLQSEDGSGKGAALITAVACRIREAGQR"
5,binds,"ATP5O (protein, UniProt P48047 24-213) FAKLVRPPVQVYGIEGRYATALYSAASKQNKLEQVEKELLRVAQILKEPKVAASVLNPYVKRSIKVKSLNDITAKERFSPLTTNLINLLAENGRLSNTQGVVSAFSTMMSVHRGEVPCTVTSASPLEEATLSELKTVLKSFLSQGQVLKLEAKTDPSILGGMIVRIGEKYVDMSVKTKIQKLGRAMREIV"
6,binds,"LMAN1 (protein, UniProt P49257 31-510) DGVGGDPAVALPHRRFEYKYSFKGPHLVQSDGTVPFWAHAGNAIPSSDQIRVAPSLKSQRGSVWTKTKAAFENWEVEVTFRVTGRGRIGADGLAIWYAENQGLEGPVFGSADLWNGVGIFFDSFDNDGKKNNPAIVIIGNNGQIHYDHQNDGASQALASCQRDFRNKPYPVRAKITYYQNTLTVMINNGFTPDKNDYEFCAKVENMIIPAQGHFGISAATGGLADDHDVLSFLTFQLTEPGKEPPTPDKEISEKEKEKYQEEFEHFQQELDKKKEEFQKGHPDLQGQPAEEIFESVGDRELRQVFEGQNRIHLEIKQLNRQLDMILDEQRRYVSSLTEEISKRGAGMPGQHGQITQQELDTVVKTQHEILRQVNEMKNSMSETVRLVSGMQHPGSAGGVYETTQHFIDIKEHLHIVKRDIDNLVQRNMPSNEKPKCPELPPFPSCLSTVHFIIFVVVQTVLFIGYIMYRSQQEAAAKKFF"

# These are yes or no findings as the source states them, for the method shown. In cells and extracts the contact can be indirect. A yes stands for co-enrichment or nearness to the bait. Other partners may have been found.
